According to patent US20200222444A1:
No constants are given. Whether binding was seen depends on the method and setting. Binding seen in cells or lysates may run through a third protein. A result given as binding can be weak or reduced; the word gives no strength.

By UniProt entry, the sequences of proteins in these tests, tags left out. Where a name states a change or a piece, a line headed by the entry shows the natural chain unless it says otherwise. Residues count along the entry.
UniProt Q13315, residues 2-3056: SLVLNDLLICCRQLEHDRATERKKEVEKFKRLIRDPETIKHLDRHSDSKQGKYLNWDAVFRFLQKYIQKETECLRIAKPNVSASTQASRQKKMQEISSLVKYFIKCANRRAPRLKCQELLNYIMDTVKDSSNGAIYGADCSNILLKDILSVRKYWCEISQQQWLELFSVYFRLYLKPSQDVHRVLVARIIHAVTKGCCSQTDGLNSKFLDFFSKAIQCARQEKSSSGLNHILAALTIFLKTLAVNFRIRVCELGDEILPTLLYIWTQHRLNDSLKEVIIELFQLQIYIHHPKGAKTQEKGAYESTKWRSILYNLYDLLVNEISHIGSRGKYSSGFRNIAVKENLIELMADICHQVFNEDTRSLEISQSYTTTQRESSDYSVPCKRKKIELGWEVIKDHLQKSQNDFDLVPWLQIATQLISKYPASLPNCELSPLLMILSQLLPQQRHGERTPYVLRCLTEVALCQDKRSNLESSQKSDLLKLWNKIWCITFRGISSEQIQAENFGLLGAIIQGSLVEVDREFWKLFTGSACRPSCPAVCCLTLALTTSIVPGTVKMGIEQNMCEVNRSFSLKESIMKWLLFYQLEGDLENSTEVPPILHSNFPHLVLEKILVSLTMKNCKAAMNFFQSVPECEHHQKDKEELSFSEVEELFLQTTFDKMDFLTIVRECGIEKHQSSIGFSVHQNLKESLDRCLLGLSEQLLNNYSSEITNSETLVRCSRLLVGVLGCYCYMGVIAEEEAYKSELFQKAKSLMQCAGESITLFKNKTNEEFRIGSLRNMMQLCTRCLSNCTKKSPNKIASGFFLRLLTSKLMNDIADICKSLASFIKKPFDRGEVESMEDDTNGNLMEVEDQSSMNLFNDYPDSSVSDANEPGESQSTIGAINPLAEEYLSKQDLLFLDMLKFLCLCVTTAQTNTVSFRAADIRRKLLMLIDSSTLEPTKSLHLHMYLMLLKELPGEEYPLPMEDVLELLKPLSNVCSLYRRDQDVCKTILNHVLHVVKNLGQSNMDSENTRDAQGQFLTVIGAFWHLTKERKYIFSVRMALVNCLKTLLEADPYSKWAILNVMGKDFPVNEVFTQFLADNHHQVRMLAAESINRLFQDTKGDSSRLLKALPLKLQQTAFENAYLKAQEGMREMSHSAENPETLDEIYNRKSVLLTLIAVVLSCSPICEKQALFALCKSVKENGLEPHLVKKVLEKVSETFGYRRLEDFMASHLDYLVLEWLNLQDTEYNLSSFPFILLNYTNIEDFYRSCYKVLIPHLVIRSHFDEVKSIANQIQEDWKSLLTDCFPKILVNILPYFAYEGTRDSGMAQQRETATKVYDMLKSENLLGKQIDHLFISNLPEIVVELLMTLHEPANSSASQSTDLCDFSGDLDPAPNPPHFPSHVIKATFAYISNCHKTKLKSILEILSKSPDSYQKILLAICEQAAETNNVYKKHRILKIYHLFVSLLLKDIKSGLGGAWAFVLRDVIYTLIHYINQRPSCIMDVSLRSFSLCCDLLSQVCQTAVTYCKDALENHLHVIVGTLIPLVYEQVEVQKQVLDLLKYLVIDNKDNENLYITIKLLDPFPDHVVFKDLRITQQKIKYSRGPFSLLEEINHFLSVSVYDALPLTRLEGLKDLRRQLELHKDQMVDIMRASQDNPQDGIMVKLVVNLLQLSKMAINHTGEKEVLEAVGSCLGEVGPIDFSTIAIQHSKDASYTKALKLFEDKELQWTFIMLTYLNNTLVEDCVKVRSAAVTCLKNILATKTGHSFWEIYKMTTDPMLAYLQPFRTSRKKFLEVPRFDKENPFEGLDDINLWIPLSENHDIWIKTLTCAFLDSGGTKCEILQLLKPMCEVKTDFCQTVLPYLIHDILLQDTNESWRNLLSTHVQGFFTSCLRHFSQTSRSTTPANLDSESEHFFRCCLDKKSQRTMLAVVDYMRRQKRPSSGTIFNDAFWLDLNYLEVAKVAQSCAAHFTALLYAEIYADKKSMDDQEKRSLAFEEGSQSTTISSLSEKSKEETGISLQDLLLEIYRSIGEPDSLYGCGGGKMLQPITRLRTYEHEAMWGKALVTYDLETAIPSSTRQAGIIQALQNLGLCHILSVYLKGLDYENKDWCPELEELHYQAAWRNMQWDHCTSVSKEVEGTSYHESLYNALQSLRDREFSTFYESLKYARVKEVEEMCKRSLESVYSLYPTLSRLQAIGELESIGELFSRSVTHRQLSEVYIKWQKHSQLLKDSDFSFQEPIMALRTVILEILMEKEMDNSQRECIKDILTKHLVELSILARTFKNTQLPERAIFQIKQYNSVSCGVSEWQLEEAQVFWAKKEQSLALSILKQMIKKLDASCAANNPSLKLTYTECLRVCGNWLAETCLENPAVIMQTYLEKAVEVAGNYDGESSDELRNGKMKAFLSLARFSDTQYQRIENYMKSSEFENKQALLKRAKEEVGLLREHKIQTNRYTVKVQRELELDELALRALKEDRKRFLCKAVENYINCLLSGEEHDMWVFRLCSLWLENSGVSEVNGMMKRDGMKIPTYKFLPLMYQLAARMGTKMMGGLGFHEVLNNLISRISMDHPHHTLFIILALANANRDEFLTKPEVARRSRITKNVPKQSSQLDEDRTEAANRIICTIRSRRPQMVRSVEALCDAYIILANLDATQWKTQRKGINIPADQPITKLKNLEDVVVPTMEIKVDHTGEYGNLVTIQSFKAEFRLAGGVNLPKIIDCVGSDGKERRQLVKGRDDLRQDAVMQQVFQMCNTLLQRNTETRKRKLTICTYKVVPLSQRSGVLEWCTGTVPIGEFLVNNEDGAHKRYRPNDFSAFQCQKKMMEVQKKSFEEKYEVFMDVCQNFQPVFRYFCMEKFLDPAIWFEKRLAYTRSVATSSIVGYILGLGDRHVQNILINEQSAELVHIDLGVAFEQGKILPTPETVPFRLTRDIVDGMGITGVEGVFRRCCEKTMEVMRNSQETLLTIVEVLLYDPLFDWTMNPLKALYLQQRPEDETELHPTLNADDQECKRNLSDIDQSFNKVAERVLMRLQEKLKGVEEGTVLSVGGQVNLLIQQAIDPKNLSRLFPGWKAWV
UniProt Q9H825: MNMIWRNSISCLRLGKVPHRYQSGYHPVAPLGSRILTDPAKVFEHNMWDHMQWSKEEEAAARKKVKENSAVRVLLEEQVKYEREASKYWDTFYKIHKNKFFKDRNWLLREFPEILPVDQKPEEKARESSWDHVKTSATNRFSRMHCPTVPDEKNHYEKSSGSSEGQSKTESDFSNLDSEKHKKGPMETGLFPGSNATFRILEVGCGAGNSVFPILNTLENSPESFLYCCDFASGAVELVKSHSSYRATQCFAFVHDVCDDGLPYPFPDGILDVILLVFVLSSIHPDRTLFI

Target: Endogenous ATM (human) (UniProt Q13315)
Assay: co-immunoprecipitation with Flag antibody from 293T cells, immunoblot (FIG. 7F)

binding: binds
Substance: Flag-Mettl8 (Flag-tagged human Mettl8, wild type) (from UniProt Q9H825) (enzyme)
